# Reference: paper PMC4370678
# Chains of the proteins cited; added tags and fusions are not shown.
# UniProt Q15691: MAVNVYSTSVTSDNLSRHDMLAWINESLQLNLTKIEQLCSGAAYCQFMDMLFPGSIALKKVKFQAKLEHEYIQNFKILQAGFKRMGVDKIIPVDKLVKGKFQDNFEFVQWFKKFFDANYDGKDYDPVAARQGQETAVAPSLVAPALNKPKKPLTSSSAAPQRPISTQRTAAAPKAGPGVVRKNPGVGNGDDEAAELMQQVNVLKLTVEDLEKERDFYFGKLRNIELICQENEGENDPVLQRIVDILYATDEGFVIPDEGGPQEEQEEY
# No constants are given. Whether binding was seen depends on the method and setting. Binding seen in cells or lysates may run through a third protein. Some binding calls cover weakened binding; strength is not graded here. Sequences can lack the tags named with a protein.
# Target: full-length human myc-tagged AIPL1 (myc-AIPL1) (human) (UniProt Q9NZN9)
# Experiment: co-IP; SK-N-SH cells co-transfected with myc-AIPL1 and EB-GFP; lysis in 1% n-dodecyl β-D-maltoside, 5 mM EDTA, pH 8.0, in PBS at 4°C; immunoprecipitation with anti-c-myc 9E10; blots with anti-GFP and anti-AIPL1
row,binding,Substance
1,binds,full-length human GFP-tagged EB1 (EB1-GFP) (from UniProt Q15691 1-268)
2,binds,full-length human GFP-tagged EB2 (EB2-GFP) (from UniProt Q15555 1-327)
3,binds,full-length human GFP-tagged EB3 (EB3-GFP) (from UniProt Q9UPY8 1-281)
